Measurements: PMC12669767
These are yes or no findings as the source states them, for the method shown. In cells and extracts the contact can be indirect. Some entries that bind do so weakly or less than the wild type.

Sequences of proteins named here, by UniProt entry; tags and fusion partners are left off.
UniProt Q76N89: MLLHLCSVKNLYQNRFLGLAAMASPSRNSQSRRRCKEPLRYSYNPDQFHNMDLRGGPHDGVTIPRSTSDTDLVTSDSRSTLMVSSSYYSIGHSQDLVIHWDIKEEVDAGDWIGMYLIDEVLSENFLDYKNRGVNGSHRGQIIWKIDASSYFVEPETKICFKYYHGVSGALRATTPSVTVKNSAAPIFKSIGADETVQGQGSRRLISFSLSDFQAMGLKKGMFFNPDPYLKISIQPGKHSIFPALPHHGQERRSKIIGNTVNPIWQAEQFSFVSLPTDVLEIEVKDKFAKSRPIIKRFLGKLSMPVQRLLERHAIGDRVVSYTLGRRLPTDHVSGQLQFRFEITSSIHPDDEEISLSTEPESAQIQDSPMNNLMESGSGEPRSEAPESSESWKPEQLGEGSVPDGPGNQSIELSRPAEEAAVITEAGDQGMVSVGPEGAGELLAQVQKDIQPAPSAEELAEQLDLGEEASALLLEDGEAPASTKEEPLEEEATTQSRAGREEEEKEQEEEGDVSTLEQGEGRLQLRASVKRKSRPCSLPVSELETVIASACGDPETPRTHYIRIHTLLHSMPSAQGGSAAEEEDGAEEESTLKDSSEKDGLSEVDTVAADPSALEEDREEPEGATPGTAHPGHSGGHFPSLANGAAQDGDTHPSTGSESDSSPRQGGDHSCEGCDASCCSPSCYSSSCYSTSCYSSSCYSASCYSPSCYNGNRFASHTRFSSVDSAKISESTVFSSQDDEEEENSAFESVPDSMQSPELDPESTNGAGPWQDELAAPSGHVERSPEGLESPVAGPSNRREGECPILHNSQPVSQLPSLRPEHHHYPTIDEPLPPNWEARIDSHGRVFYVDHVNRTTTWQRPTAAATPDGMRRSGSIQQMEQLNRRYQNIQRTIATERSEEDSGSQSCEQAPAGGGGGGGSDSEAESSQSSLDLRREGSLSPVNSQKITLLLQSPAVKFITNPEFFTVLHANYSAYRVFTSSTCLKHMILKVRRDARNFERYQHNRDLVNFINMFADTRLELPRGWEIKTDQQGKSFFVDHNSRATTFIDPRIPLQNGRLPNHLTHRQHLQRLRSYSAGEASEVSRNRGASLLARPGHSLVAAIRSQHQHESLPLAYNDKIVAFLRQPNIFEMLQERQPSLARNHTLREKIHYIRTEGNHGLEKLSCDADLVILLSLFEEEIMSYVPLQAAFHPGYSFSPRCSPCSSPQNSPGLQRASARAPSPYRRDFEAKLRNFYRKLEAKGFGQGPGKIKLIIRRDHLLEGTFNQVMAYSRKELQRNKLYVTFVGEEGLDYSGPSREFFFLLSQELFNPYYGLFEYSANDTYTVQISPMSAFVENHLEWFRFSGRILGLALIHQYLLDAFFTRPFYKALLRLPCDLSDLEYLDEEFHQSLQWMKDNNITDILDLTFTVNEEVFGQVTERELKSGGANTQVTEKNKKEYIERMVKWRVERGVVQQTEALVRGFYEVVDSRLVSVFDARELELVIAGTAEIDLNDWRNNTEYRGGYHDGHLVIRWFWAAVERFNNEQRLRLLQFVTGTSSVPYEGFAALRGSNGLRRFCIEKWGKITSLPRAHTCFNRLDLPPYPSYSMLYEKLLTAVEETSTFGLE
UniProt Q9P2P5: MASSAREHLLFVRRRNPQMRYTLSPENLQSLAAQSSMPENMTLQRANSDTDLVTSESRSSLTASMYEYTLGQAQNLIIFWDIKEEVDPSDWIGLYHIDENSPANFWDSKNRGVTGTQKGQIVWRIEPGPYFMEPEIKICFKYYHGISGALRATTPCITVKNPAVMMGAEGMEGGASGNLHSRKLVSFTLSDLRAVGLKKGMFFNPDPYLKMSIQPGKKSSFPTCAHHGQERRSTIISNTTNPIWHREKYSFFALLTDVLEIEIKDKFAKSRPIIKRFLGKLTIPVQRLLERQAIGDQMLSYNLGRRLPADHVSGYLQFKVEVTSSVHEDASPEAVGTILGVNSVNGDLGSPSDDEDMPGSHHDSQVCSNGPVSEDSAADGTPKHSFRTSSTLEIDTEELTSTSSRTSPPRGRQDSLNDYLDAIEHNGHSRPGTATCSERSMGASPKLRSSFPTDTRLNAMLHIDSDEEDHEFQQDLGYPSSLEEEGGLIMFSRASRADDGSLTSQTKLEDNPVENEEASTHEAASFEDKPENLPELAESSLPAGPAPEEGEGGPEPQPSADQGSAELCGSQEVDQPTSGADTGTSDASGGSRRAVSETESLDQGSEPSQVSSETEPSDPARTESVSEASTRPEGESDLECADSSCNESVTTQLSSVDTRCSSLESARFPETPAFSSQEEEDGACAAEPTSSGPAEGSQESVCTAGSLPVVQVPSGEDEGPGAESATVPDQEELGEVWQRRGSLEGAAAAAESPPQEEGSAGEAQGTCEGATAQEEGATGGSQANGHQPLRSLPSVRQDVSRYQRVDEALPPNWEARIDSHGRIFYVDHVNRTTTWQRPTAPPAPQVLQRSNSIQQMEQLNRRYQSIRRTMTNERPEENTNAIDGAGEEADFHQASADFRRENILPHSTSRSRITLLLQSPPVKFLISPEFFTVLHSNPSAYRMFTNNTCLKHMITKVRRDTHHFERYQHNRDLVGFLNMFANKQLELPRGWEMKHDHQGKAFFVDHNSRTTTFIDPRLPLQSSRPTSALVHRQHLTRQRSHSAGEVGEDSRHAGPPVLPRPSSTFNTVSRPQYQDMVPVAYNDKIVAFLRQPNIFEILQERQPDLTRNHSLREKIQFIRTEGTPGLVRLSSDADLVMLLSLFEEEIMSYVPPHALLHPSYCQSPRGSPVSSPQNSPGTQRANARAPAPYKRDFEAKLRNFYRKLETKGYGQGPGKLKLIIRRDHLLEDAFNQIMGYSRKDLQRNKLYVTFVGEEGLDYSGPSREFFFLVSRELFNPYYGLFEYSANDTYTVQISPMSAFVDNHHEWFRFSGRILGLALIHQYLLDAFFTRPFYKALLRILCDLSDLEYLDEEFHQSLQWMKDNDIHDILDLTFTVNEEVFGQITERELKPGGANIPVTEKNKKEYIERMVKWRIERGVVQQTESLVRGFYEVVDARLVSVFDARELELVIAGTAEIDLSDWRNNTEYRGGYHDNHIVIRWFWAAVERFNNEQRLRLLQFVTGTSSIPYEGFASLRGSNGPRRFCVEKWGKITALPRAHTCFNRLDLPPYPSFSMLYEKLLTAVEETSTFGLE
UniProt P46934: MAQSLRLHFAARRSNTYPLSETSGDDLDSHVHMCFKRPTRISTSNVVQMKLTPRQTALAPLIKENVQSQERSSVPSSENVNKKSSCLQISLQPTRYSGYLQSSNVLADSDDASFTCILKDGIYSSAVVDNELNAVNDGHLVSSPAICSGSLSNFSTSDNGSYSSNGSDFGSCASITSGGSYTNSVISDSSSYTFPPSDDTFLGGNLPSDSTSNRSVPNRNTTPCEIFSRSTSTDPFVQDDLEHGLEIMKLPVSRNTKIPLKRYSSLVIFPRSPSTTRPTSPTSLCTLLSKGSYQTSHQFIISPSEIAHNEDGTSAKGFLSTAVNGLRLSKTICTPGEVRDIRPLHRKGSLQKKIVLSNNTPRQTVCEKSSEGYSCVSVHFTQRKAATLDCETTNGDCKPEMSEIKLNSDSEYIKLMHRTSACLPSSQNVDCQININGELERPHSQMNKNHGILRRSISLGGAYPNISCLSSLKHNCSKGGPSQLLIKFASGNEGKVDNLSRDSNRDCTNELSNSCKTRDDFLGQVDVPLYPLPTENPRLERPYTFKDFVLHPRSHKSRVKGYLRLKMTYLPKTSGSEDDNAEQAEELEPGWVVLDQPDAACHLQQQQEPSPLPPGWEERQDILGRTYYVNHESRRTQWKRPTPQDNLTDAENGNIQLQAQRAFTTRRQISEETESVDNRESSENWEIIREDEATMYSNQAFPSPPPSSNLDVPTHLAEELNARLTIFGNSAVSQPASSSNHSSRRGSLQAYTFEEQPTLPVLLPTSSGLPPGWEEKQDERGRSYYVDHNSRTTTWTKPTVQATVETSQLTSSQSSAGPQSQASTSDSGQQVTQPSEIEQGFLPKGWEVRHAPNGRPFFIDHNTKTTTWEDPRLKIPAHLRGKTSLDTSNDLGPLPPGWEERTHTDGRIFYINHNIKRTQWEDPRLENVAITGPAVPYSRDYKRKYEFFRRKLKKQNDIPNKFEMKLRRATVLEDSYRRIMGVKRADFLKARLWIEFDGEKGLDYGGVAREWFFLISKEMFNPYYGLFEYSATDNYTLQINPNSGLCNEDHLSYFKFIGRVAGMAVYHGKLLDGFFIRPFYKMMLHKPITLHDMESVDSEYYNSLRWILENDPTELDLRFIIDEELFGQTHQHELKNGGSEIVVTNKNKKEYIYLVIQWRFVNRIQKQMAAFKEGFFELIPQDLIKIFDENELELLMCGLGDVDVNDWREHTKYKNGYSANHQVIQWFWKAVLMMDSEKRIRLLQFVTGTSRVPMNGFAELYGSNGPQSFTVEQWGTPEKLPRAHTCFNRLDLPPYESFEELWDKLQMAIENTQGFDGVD

Tests used:
[1] = molecular target: T1, ALFA-TXNIP^PPCY331AACA (first PPxY motif mutated) (human) (UniProt Q9H3M7); assay: pull-down; bead-immobilized prey assay (BIPA): ALFA-TXNIP or PPxY mutants captured from HEK293T lysate on ALFA Selector ST beads and washed, then incubated 30 min on ice with lysate of HEK293T over-expressing YFP-tagged HECT-type ubiquitin ligases; 100 mM HEPES pH 7.5, 100 mM NaCl wash; YFP on the beads read by fluorescence microscopy and quantified; only the target purified
T1 sequence: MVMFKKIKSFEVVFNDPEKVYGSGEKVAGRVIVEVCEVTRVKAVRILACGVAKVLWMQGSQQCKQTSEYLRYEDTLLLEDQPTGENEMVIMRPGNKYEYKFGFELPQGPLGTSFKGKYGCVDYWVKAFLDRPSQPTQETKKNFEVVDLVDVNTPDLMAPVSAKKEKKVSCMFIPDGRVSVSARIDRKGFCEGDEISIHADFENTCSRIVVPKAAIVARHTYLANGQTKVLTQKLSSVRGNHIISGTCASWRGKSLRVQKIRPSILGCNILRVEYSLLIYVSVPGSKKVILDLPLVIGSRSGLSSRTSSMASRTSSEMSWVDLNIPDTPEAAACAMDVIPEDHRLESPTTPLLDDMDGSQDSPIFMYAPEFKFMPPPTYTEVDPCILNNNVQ

[2] = molecular target: ALFA-tagged TXNIP (thioredoxin interacting protein), expressed in HEK293T (human) (UniProt Q9H3M7); assay: as above

Substance	binding [1]	binding [2]
YFP-HECW1 (from UniProt Q76N89 1-1606) (enzyme)	binds	binds
YFP-HECW2 (from UniProt Q9P2P5 1-1572) (enzyme)	binds	binds
YFP-NEDD4 (from UniProt P46934 1-1319) (enzyme)	binds	binds
